Laboratory results: patent US20040086503A1
Results are given in words; binding and its absence hold for the method and conditions named. Some entries that bind do so weakly or less than the wild type.

Target: Rhesus IGF-IR (rhesus) (UniProt I2CWY3)
Test: immunoprecipitation and Western blot on cells

B1: anti-IGF-IR antibody 2.12.1 (antibody, V domains shown)
VH: QAQLVESGGGLVKPGGSLRLSCAASGFTFSDYYMSWIRQAPGKGLEWVSYISSSGSTRDYADSVKGRFTISRDNAKNSLYLQMNSLRAEDTAVYYCVRDGVETTFYYYYYGMDVWGQGTTVTVSS
VL: DIQMTQSPSSLSASVGDRVTFTCRASQDIRRDLGWYQQKPGKAPKRLIYAASRLQSGVPSRFSGSGSGTEFTLTISSLQPEDFATYYCLQHNNYPRTFGQGTEVEIIR
For B1, the binding was “binds”.

B2: anti-IGF-IR antibody 2.13.2 (antibody, V domains shown)
VH: EVQLLESGGGLVQPGGSLRLSCTASGFTFSSYAMNWVRQAPGKGLEWVSAISGSGGTTFYADSVKGRFTISRDNSRTTLYLQMNSLRAEDTAVYYCAKDLGWSDSYYYYYGMDVWGQGTTVTVSS
VL: DIQMTQFPSSLSASVGDRVTITCRASQGIRNDLGWYQQKPGKAPKRLIYAASRLHRGVPSRFSGSGSGTEFTLTISSLQPEDFATYYCLQHNSYPCSFGQGTKLEIKR
With B2 the binding was “binds”.
